Patent publication US20080022467A1, “Disazo dyes and their preparation and use” (ILFORD Imaging Switzerland GmbH, priority 2006, published 2008)

Assays:
[1] = Color saturation C* of printed patches; design: key: A: excellent; B: good; C: satisfactory; D: unsatisfactory
[2] = Dye diffusion of printed grid patches on storage; design: key: A: excellent; B: good; C: satisfactory; D: unsatisfactory; details: 7 days, 40° C., 80% relative humidity
[3] = A: HP Printing Paper HPP 1122 (paper)
[4] = B: HP Premium Plus (polymer based)
[5] = C: ILFORD Galerie Smooth Glossy (nanoporous)
[6] = D: ILFORD Printasia Premium Photo Glossy Paper (nanoporous)
[7] = E: ILFORD Galerie Classic Gloss Paper (polymer based)
[8] = F: EPSON Premium Glossy Photo Paper (nanoporous)
[9] = G: CANON Photo Paper Pro PR-101 (nanoporous)

Direct Yellow 132 [Dye No. III, reference compound]
Color Saturation C* (Class) on Recording Sheet A [1, 3]: A | Color Saturation C* (Class) on Recording Sheet B [1, 4]: A | Color Saturation C* (Class) on Recording Sheet C [1, 5]: A | Color Saturation C* (Class) on Recording Sheet D [1, 6]: A | Color Saturation C* (Class) on Recording Sheet E [1, 7]: A | Color Saturation C* (Class) on Recording Sheet F [1, 8]: A | Color Saturation C* (Class) on Recording Sheet G [1, 9]: A | Dye Diffusion (Class) on Recording Sheet A [2, 3]: A | Dye Diffusion (Class) on Recording Sheet B [2, 4]: D | Dye Diffusion (Class) on Recording Sheet C [2, 5]: C | Dye Diffusion (Class) on Recording Sheet D [2, 6]: C | Dye Diffusion (Class) on Recording Sheet E [2, 7]: D | Dye Diffusion (Class) on Recording Sheet F [2, 8]: D | Dye Diffusion (Class) on Recording Sheet G [2, 9]: A
